## Percent effect of library compounds

Sequences of proteins named here, by UniProt entry; tags and fusion partners are left off.
UniProt P9WPC5, whole entry: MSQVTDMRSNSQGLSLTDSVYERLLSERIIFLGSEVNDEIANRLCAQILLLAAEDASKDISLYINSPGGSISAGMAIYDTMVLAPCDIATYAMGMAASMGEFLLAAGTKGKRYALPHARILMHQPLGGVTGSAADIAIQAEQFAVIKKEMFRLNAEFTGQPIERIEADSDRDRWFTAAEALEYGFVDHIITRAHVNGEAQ
UniProt P9WPC3, whole entry partner: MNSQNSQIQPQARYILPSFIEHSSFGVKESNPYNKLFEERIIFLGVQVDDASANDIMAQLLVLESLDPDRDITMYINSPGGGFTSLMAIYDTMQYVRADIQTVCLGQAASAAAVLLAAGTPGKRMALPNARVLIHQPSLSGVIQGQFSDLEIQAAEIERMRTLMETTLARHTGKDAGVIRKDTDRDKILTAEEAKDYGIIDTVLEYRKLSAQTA

Measurements from “University of Dundee, Small-Polar-MMV Screening Library” (2021), ChEMBL document CHEMBL3988442.

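Protease assay of ClpP1P2, read by the AMC dye that it sets free. Target: ClpP1P2, Mycobacterium tuberculosis (UniProt P9WPC5 and UniProt P9WPC3). Tested at 50 µM. Direction is inferred from only a few compounds that gave an IC50; most scored high, so higher reads as stronger inhibition. Most other retested compounds had strongly negative values. Size under these conditions: about 69,000 compounds, about 10 of them at 50% or above in at least one test.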

Values are the deposited “Percent Effect”, in %. How 0% and 100% were set is not recorded. Most values in the screen are low, and negative values occur. This is an unselected part of the compounds tested.

| Compound | effect |
|---|---|
| `COc1ccc2[nH]cc(C(=O)N3CC[C@H](CO)[C@@H](O)C3)c(=O)c2c1` | -1.919% |
| `O=S1(=O)CCC(n2cc(C3=CCN(CCN4CCCCC4)CC3)cn2)C1` (centres undefined) | 1.534% |
| `CC(=O)N1CCc2nc(-c3ccc(F)cc3)nc(NC(C)C)c2CC1` | -9.917% |
| `Cc1nc(CN2C[C@@H]3CCCO[C@@H]3[C@H](NC(=O)CC3CC3)C2)cs1` | 7.689% |
| `COc1ccc(C)cc1CC(=O)NC1(C#N)CCOCC1` | 0.7552% |
| `Cc1noc(C)c1C(=O)N1CCCC1c1c(C)nn(C)c1Cl` (centres undefined) | 3.724% |
| `CS(=O)(=O)Cc1cccc(C(=O)NCC2Cc3ccccc3O2)c1` (centres undefined) | 7.676% |
| `COc1cc(NC(=O)Cn2ccc3sc(C)cc3c2=O)cc(OC)c1` | -20.66% |
| `CCOc1ncccc1CNC(=O)N1CCCC1c1cccs1` (centres undefined) | -15.39% |
| `CCN(Cc1nccn1C)C(=O)c1ccc(NCc2ccccc2)nc1` | -25.7% |
| `O=C(OCC1CCN(c2ccccc2)C1)c1cscn1` (centres undefined) | -2.609% |
| `Cc1cc(CN(C)C(=O)c2ccc(F)cc2Br)no1` | 20.88% |
| `CC(O)CN1CCN(C(=O)c2ccc3c(c2)COC3)CC1` (centres undefined) | -3.603% |
| `CN(Cc1cccc(Cl)c1)Cc1nnsc1Cl` | -1.214% |
| `O=C(c1cc(C2CC2)[nH]n1)N1CCCN(c2nccs2)CC1` | 0.05379% |
| `Cc1cc(C)n(-c2cc(N3CCN(C(=O)C(C)(C)C)CC3)nc(C)n2)n1` | -15.9% |
| `COCc1cc(C[C@@H]2CC[C@H](O)[C@@H](CN(C)C)O2)no1` | 8.76% |
| `Cc1nc(N2C[C@H]3CC[C@@H](C2)N3)nc2cc(S(C)(=O)=O)ccc12` | -111.1% |
| `O=C(CN1CCCC1c1nc(-c2ccccn2)no1)N1CCOCC1` (centres undefined) | -6.303% |
| `O=C(c1ccc(=O)[nH]n1)N1CCc2ccccc21` | -0.8009% |
| `Cc1nnc([C@@H]2CC[C@@H]3[C@@H](CCN3S(=O)(=O)C3CC3)O2)o1` | 4.535% |
| `Cc1ccc(CN(C)C(=O)c2scnc2C)cc1` | -38.3% |
| `Cn1cc(CN2CC[C@H]3O[C@H](C(=O)NCc4ccco4)CC[C@H]32)cn1` | -6.26% |
| `CN1CCN(c2ccc(NCc3ccc([S+](C)[O-])cc3)cn2)CC1` (centres undefined) | -4.554% |
| `Cc1nnc(N2CC[C@H]3C[C@H](C(=O)N(C)C)O[C@@H]3C2)s1` | 10.75% |
| `CC1CN(c2ccc(CNC(=O)NCCO)cn2)CCO1` (centres undefined) | 8.645% |
| `CC(NC(=O)c1ccc(C#N)cn1)C1(N2CCOCC2)CCCC1` (centres undefined) | -0.5658% |
| `FC(F)(F)Cn1ccnc1CN1CCOC(Cn2cccn2)C1` (centres undefined) | 3.957% |
| `Cc1cc(C(C)NC(=O)c2c[nH]c(=O)c(Cl)c2)c(C)o1` (centres undefined) | -1.625% |
| `COc1ccccc1CN(Cc1nc(C)no1)C1CC1` | -9.493% |
| `Cc1ccc(NC(=O)N2CCCC(O)C2)c(Br)c1` (centres undefined) | 6.466% |
| `NC(=O)CN1CCCN(C(=O)Cc2ccc(F)c(Br)c2)CC1` | 4.311% |
| `Cc1cccc(C(C)(C)NC(=O)CCS(C)(=O)=O)c1` | -6.135% |
| `CC(=O)c1cccc(NC(=O)N(CC(F)F)C2CC2)c1` | 3.324% |
| `O=C(NCCOc1ccc2c(c1)OCO2)C1CC(=O)N(CC2CC2)C1` (centres undefined) | 10.22% |
| `COc1ncccc1C(=O)N1CCC(CNC(C)=O)CC1` | 7.295% |
| `CCS(=O)(=O)N1CC[C@]2(C[C@@H](OCC3CC3)CO2)C1` | -1.236% |
| `O=C(CCc1nccs1)N1CCCC(n2ccnc2)C1` (centres undefined) | 10.27% |
| `CCCNC(=O)Nc1ccn(CCCOC)n1` | -7.834% |
| `Clc1ccc2cccnc2c1CN1CCn2c(nnc2C2CC2)C1` | -19.37% |
| `CC(CN1CCOC1=O)NC(=O)c1cccc(Cl)c1Cl` (centres undefined) | -12.21% |
| `O=C(Cc1cccc(F)c1)N1C[C@H]2CN(Cc3cccnc3)C[C@H]2C1` | -3.744% |
| `O=C(NCc1ccco1)[C@H]1CC[C@@H]2[C@@H](CCN2C2CCC2)O1` | -6.67% |
| `CC(C)(C)CNS(=O)(=O)C1CS(=O)(=O)c2ccccc21` (centres undefined) | 1.562% |
| `CCn1ncc2c1CCCC2NCc1ccc(OC)c(F)c1` (centres undefined) | -20.65% |
| `CSC(C)(C)CNC(=O)NCc1cccc(-n2ccnc2)c1` | 4.154% |
| `Cc1ccc(C)c(C(=O)NC2CCC(N3C(=O)CCC3=O)CC2)c1` (centres undefined) | -4.599% |
| `O=C1CC(c2cccs2)Cc2[nH]c(=O)c(C(=O)NC3CCCC3)cc21` (centres undefined) | -8.899% |
| `CN(C(=O)CC1=CCCCC1)C1CCCN(C2Cc3ccccc3C2)C1` (centres undefined) | -6.1% |
| `N#Cc1nccnc1N1CCC(COCc2ccccc2)C1` (centres undefined) | -20.4% |
| `Cc1nn(CN(Cc2ccsc2)C2CC2)c(=O)c2noc(C)c12` | 1.603% |
| `CC(NC(=O)NCCCN1CCc2ccccc2C1)c1nncn1C` (centres undefined) | 16.05% |
| `CCCNC(=O)CCNC1CSCCc2ccccc21` (centres undefined) | 1.39% |
| `O=C(c1[nH]nc(C2CC2)c1Cl)N1CCCC1` | 0.08886% |
| `CNC(=O)CS(=O)(=O)C1CCN(S(=O)(=O)c2c(F)cccc2F)CC1` | -6.049% |
| `CCn1c(C2CCCN2Cc2noc(C(C)(C)C)n2)nc2ccccc21` (centres undefined) | -11.66% |
| `COc1cc(NCC(=O)NC(C)(C#N)C(C)C)cc(OC)c1OC` (centres undefined) | -5.002% |
| `CC(C)c1cccc(-n2cc(O)c(C(=O)O)n2)c1` | -3.137% |
| `Cc1[nH]ncc1C(C)NCc1ccc(F)cc1` (centres undefined) | -6.445% |
| `Cn1cnc2c1CCN(CCCc1ccccc1)C2` | -7.077% |
| `COc1c(CNCCc2c[nH]c3ccccc23)c(C(C)C)nn1C` | -1.187% |
| `Cc1cccn2cc(CC(=O)N3CCCC(n4cncn4)C3)nc12` (centres undefined) | 21.1% |
| `Cc1nn2c(NCC(=O)NC3CC3)cc(-c3ccccc3)nc2c1C` | -16.5% |
| `Cc1ccc(F)cc1S(=O)(=O)Nc1ccc2c(C(=O)O)c[nH]c2c1` | -13.62% |
| `COc1ccc(-c2nc3c([nH]2)CCNC3C(=O)O)c2ccccc12` (centres undefined) | -0.7815% |
| `CCN(Cc1ccncc1)c1cc(C2CCCNC2)nc(C)n1` (centres undefined) | -6.297% |
| `COc1ccc(-c2cccc(-c3ccn(CCCN(C)C)n3)c2)nn1` | -20.54% |
| `Cc1ccc(CCc2nc(C3CCOC3)no2)o1` (centres undefined) | -10.56% |
| `Cc1nc(C(C)C)sc1C(=O)NCCn1ccnc1` | 3.632% |
| `COC(=O)c1cccc(C(=O)N(C)Cc2cccc(O)c2)c1` | 18.82% |
| `COc1cc(CNCCc2cnn(C)c2)cc2c1OCCO2` | 5.513% |
| `COc1ccc(C(C)(C)C)cc1CN1CCn2c(CO)nnc2C1` | -7.268% |
| `CC(c1cc(F)ccc1F)N(C)C(=O)NCc1ccnc(N(C)C)c1` (centres undefined) | -21.88% |
| `COCc1nc(C(=O)N2CCCC(n3nc(C)nc3C)C2)cs1` (centres undefined) | -7.547% |
| `NC(=O)CN(Cc1ccc(Br)cc1)C(=O)c1cccnc1` | -7.396% |
| `Cc1cc(C)n(CC2CN(Cc3ccc4c(c3)OCCO4)CCO2)n1` (centres undefined) | -11.23% |
| `CCn1cnnc1CNC(=O)N1CCOCC1` | -0.6146% |
| `Cc1ccccc1C(=O)N1CCN(c2ccc(-n3cncn3)nn2)CC1` | -5.652% |
| `COc1ccc(OCc2cc(C(=O)N3CC=CC3)n[nH]2)c(Cl)c1` | -16.2% |
| `CC(C)NC(=O)Nc1cccc2c1CCN(S(C)(=O)=O)C2` | 1.866% |
| `c1ccc(N2CCCC3(CCN(Cc4ccsc4)C3)C2)nc1` (centres undefined) | -0.5029% |
| `NCC(c1ccc(Cl)cc1)N1CCc2sccc2C1` (centres undefined) | 11.67% |
| `Cc1ncc(C(=O)NCCOc2ccccc2F)c(C)n1` | 9.251% |
| `NCc1cnn(-c2ccccc2C(=O)NCc2ccncc2)c1` | 3.435% |
| `Cn1cnc2ccc(NC(=O)CCCn3cccn3)cc2c1=O` | -10.03% |
| `CCc1ccsc1C(=O)N1CCN(CC(O)CC)CC1` (centres undefined) | -8.004% |
| `Cc1noc(C)c1C(=O)Nc1ccc2ncn(CC(C)C)c(=O)c2c1` | 18.88% |
| `c1nc2c(c(NC3COC4(CCCC4)C3)n1)CCNCC2` (centres undefined) | -16.58% |
| `CC(C)NC(=O)c1ccc2c(c1)C1(CCN(C)CC1)C(=O)N2` | -11.37% |
| `Cc1nn(C)cc1C(C)Nc1ncnc2sccc12` (centres undefined) | -14.67% |
| `COc1cccc2c1OCC(C(=O)NCCc1nnc(N)s1)C2` (centres undefined) | 8.622% |
| `Cc1cc(C)n(CC2CCCCN2C(=O)c2ccc3[nH]nnc3c2)n1` (centres undefined) | 2.846% |

Once more, the final 12:

Compound	effect
c1ccc(N2CCCC3(CCN(Cc4ccsc4)C3)C2)nc1 (centres undefined)	-0.5029%
NCC(c1ccc(Cl)cc1)N1CCc2sccc2C1 (centres undefined)	11.67%
Cc1ncc(C(=O)NCCOc2ccccc2F)c(C)n1	9.251%
NCc1cnn(-c2ccccc2C(=O)NCc2ccncc2)c1	3.435%
Cn1cnc2ccc(NC(=O)CCCn3cccn3)cc2c1=O	-10.03%
CCc1ccsc1C(=O)N1CCN(CC(O)CC)CC1 (centres undefined)	-8.004%
Cc1noc(C)c1C(=O)Nc1ccc2ncn(CC(C)C)c(=O)c2c1	18.88%
c1nc2c(c(NC3COC4(CCCC4)C3)n1)CCNCC2 (centres undefined)	-16.58%
CC(C)NC(=O)c1ccc2c(c1)C1(CCN(C)CC1)C(=O)N2	-11.37%
Cc1nn(C)cc1C(C)Nc1ncnc2sccc12 (centres undefined)	-14.67%
COc1cccc2c1OCC(C(=O)NCCc1nnc(N)s1)C2 (centres undefined)	8.622%
Cc1cc(C)n(CC2CCCCN2C(=O)c2ccc3[nH]nnc3c2)n1 (centres undefined)	2.846%